From doi:10.1101/2025.01.23.634435 come the findings set out here.

Protein sequences, listed by entry. Tags and fused reporters are not part of them.
UniProt Q01094: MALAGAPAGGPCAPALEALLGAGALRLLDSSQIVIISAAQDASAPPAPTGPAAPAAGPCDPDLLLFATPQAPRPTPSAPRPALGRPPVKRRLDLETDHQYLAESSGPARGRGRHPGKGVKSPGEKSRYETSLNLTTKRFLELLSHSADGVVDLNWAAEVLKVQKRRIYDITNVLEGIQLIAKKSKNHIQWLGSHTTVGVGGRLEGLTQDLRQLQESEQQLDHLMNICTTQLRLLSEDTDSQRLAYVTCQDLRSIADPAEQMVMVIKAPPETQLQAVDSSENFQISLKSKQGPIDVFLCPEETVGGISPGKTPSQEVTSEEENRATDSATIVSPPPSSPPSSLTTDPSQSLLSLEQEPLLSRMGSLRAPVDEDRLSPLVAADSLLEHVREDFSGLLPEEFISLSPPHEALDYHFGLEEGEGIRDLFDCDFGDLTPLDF
UniProt P03206: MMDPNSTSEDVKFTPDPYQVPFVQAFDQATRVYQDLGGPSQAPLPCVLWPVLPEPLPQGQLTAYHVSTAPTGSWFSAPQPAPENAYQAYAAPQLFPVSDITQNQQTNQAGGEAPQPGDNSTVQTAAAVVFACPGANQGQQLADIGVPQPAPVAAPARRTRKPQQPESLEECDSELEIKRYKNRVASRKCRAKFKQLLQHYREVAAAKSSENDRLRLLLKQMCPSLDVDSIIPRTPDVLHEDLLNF

This test deals with flag-tagged E2F1 (UniProt Q01094). The experiment in a line: co-IP.

Results are given in words; binding and its absence hold for the method and conditions named. Binding seen in cells or lysates may run through a third protein.

“myc-tagged BZLF1 (from UniProt P03206 1-245)”: the binding result is “no binding”.
